According to paper PMC11434141:
No constants are given. Whether binding was seen depends on the method and setting. In cells and extracts the contact can be indirect. Some entries that bind do so weakly or less than the wild type. Each block holds one molecule with its values, some of them ahead of it.

Sequences of proteins named here, by UniProt entry; tags and fusion partners are left off. Residues count along the entry.
UniProt O43791: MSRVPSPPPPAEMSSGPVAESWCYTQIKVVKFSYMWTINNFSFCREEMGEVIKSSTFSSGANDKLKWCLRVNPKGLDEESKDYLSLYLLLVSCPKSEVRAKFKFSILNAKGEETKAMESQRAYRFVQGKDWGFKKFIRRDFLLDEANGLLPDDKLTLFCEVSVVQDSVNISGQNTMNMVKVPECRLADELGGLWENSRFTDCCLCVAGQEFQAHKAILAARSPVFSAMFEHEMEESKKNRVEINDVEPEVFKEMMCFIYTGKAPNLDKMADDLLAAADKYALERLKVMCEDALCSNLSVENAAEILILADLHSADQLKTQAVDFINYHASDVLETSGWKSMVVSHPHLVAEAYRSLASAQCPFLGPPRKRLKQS
UniProt Q15788: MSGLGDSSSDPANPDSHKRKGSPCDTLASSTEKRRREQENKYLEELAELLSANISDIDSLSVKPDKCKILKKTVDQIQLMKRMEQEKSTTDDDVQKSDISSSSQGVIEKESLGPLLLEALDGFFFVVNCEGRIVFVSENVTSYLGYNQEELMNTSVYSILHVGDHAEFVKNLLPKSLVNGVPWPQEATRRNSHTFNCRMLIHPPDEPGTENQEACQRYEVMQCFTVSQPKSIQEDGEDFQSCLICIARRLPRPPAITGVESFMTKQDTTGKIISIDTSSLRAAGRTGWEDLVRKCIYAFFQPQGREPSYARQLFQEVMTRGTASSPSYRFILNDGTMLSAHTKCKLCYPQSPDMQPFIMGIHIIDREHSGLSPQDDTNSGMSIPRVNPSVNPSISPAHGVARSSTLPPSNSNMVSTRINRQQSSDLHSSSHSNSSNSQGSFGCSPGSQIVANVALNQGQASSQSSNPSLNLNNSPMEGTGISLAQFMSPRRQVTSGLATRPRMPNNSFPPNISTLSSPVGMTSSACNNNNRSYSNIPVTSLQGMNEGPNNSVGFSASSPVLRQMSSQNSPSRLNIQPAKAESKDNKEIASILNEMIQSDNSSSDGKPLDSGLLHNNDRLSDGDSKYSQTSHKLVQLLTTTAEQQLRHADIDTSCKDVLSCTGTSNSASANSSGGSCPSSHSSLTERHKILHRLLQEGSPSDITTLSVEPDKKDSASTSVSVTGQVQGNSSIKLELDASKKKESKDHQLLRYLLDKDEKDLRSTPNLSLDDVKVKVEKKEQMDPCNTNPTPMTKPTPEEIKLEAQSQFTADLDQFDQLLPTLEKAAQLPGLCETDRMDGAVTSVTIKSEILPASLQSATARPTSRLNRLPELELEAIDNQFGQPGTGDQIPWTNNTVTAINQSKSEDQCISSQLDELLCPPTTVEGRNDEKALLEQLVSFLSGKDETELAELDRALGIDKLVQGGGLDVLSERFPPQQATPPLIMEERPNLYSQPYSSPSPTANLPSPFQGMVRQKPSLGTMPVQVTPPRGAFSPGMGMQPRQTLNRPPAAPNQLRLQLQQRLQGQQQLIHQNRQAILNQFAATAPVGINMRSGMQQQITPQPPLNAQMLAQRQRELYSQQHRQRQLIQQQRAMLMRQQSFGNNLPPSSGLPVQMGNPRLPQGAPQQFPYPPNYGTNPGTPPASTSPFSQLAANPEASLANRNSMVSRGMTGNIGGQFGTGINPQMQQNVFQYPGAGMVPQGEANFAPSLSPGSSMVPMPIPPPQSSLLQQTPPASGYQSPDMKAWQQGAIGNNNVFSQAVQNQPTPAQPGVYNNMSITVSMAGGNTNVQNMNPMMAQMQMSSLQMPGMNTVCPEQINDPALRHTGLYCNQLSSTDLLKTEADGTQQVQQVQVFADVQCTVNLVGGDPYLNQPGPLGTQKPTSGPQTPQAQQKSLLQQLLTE
UniProt P70365: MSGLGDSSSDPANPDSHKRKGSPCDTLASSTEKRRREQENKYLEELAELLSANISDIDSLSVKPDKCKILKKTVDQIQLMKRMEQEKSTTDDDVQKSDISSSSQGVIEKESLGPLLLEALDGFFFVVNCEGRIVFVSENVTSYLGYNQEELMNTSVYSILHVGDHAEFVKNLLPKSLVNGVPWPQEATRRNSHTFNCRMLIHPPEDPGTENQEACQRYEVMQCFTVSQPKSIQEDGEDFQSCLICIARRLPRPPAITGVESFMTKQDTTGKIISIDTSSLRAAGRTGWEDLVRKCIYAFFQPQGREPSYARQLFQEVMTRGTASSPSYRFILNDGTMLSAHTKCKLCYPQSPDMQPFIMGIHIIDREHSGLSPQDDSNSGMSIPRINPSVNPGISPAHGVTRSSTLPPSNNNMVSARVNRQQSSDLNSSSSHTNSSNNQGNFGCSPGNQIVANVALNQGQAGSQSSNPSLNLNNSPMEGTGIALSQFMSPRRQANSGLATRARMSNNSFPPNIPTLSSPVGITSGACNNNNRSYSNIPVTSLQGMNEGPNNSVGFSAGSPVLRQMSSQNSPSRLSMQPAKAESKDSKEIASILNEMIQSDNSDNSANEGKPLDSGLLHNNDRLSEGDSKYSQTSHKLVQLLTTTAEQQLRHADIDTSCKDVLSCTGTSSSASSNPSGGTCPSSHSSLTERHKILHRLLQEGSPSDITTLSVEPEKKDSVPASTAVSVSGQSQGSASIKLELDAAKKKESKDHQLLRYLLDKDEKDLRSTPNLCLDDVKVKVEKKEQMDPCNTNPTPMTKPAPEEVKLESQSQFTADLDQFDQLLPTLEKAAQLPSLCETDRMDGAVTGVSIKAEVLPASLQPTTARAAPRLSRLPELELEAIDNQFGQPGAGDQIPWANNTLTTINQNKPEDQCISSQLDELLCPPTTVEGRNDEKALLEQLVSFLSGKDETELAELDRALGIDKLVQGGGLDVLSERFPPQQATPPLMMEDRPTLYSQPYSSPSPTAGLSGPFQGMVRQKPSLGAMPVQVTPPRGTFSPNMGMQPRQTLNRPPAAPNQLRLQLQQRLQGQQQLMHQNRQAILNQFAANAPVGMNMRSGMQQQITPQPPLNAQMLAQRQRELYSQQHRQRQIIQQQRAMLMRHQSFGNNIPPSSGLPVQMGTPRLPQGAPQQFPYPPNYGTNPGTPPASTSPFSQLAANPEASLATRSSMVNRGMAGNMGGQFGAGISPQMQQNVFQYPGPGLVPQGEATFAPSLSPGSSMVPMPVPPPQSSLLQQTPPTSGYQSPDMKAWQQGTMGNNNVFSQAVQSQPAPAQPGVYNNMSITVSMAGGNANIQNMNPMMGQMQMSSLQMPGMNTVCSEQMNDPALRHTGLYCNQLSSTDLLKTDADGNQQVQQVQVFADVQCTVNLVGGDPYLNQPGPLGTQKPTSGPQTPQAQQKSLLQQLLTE
UniProt Q9NZQ7, residues 19-290: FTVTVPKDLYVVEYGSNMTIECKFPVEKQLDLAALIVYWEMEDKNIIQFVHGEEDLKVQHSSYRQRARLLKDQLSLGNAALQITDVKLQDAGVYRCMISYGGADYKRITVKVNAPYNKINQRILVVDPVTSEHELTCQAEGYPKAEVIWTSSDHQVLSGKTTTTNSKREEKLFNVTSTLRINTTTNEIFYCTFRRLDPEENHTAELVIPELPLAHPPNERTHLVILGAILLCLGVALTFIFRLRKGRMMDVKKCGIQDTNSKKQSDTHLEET
UniProt P40763: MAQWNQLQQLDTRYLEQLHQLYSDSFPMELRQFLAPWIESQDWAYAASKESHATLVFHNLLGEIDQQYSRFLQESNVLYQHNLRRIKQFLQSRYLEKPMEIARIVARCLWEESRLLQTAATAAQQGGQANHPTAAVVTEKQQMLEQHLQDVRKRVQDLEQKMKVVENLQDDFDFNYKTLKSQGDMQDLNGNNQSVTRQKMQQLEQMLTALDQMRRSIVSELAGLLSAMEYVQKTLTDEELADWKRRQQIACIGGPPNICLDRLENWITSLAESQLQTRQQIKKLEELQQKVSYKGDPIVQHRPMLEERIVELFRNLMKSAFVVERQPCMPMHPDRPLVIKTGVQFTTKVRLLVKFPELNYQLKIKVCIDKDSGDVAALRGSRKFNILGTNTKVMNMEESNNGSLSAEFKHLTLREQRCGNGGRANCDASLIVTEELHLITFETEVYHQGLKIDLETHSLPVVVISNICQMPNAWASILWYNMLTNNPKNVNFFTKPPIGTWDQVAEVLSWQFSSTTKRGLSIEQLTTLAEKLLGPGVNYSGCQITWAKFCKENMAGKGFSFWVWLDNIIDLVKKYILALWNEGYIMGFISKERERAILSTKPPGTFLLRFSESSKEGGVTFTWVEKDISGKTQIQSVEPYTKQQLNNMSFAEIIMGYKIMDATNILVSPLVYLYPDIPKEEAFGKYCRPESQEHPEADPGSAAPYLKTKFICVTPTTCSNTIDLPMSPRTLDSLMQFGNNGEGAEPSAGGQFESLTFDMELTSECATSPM
UniProt P42227: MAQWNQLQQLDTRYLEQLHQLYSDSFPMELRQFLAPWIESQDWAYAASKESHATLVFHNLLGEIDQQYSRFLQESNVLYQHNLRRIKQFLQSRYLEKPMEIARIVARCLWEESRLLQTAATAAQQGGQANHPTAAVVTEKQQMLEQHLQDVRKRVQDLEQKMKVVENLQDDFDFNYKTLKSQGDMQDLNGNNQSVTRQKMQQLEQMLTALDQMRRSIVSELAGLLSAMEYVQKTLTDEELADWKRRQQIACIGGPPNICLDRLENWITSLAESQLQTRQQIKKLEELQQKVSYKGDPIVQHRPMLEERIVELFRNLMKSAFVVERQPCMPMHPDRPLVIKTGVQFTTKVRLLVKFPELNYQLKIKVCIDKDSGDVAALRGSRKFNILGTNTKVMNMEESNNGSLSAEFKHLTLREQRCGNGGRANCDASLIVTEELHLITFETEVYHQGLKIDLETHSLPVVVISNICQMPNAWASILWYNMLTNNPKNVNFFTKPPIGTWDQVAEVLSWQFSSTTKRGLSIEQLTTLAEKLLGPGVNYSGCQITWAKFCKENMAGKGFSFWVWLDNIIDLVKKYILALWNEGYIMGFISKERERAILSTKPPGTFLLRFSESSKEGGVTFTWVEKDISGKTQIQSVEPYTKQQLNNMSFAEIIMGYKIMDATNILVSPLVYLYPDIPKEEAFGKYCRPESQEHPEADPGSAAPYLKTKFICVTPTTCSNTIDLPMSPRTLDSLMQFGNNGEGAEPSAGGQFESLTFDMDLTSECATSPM

How the values were obtained:
[1] = molecular target: speckle-type POZ protein (SPOP), tagged, expressed in 293T cells (UniProt O43791); experiment: co-IP; 293T cells co-transfected with differently tagged proteins, with or without exogenous SRC-1 (Figure 5H)
[2] = molecular target: steroid receptor coactivator-1 (SRC-1), endogenous in HCT116 cells (human (endogenous in HCT116)) (UniProt Q15788); experiment: co-IP; endogenous proteins of CMT93 and HCT116 cell lysates; indicated antibodies and Protein A/G Plus-Agarose at 4 °C overnight; blotted with specific antibodies
[3] = molecular target: steroid receptor coactivator-1 (SRC-1), endogenous in CMT93 cells (mouse (endogenous in CMT93)) (UniProt P70365); experiment: as above
SPOP in CRC cells = SPOP in CRC cells (UniProt O43791); experiment: co-IP; CRC cells, control and SRC-1 knockout (Figure 5I); cell line not told
[4] = molecular target: SPOP (source not told for the experiment) (UniProt O43791); experiment: co-IP; co-IP of SPOP, SRC-1 and PD-L1 (Figure 5C); cells and bait not told
[5] = molecular target: SPOP (source not told for the experiment) (UniProt O43791); experiment: pull-down; GST pull-down with SRC-1, SPOP and PD-L1 together (Figure S4I); which protein was GST-fused is not told

Molecule: programmed death-ligand 1 (PD-L1), tagged, expressed in 293T cells (from UniProt Q9NZQ7 19-290)
binding [1]: binds

binding [2]: binds
Molecule: STAT3, endogenous in HCT116 cells (from UniProt P40763 1-770)

binding [1]: binds
Molecule: SRC-1, tagged, expressed in 293T cells (from UniProt Q15788 1-1441)

binding [3]: binds
Molecule: STAT3, endogenous in CMT93 cells (from UniProt P42227 1-770)

binding (SPOP in CRC cells): binds
Molecule: PD-L1 in CRC cells (from UniProt Q9NZQ7 19-290)

binding [4]: binds | binding [5]: binds
Molecule: SRC-1 (source not told for the experiment) (from UniProt Q15788 1-1441)

binding [4]: binds | binding [5]: binds
Molecule: PD-L1 (source not told for the experiment) (from UniProt Q9NZQ7 19-290)

binding [2]: binds
B1: IRF1, endogenous in HCT116 cells (protein, UniProt P10914 1-325)
chain: MPITRMRMRPWLEMQINSNQIPGLIWINKEEMIFQIPWKHAAKHGWDINKDACLFRSWAIHTGRYKAGEKEPDPKTWKANFRCAMNSLPDIEEVKDQSRNKGSSAVRVYRMLPPLTKNQRKERKSKSSRDAKSKAKRKSCGDSSPDTFSDGLSSSTLPDDHSSYTVPGYMQDLEVEQALTPALSPCAVSSTLPDWHIPVEVVPDSTSDLYNFQVSPMPSTSEATTDEDEEGKLPEDIMKLLEQSEWQPTNVDGKGYLLNEPGVQPTSVYGDFSCKEEPEIDSPGGDIGLSLQRVFTDLKNMDATWLDSLLTPVRLPSIQAIPCAP

binding [3]: binds
B2: IRF1, endogenous in CMT93 cells (protein, UniProt P15314 1-329)
chain: MPITRMRMRPWLEMQINSNQIPGLIWINKEEMIFQIPWKHAAKHGWDINKDACLFRSWAIHTGRYKAGEKEPDPKTWKANFRCAMNSLPDIEEVKDQSRNKGSSAVRVYRMLPPLTRNQRKERKSKSSRDTKSKTKRKLCGDVSPDTFSDGLSSSTLPDDHSSYTTQGYLGQDLDMERDITPALSPCVVSSSLSEWHMQMDIIPDSTTDLYNLQVSPMPSTSEAATDEDEEGKIAEDLMKLFEQSEWQPTHIDGKGYLLNEPGTQLSSVYGDFSCKEEPEIDSPRGDIGIGIQHVFTEMKNMDSIMWMDSLLGNSVRLPPSIQAIPCAP
